Values joined by “and” are separate entries in the source; they are usually repeats but may differ in a detail not shown here. Identical values can stand only once. Out of some 320,000 compounds screened, about 22,000 (6.9%) were called active. The inconclusive results got no clear call from the source; some entries with a clear call stand among them for comparison. Calls come from the whole dose curve; as a rule, active = well fitted inhibition curve with a large enough effect; inconclusive = small, poorly fitted or top-dose-only effect, or another doubt; inactive = no such curve, though single readings can be large or run the other way. Where the call is inconclusive, the potency comes from a doubtful curve fit.
Assay: Primary qHTS for delayed death inhibitors of the malarial parasite plastid, 96 hour incubation
Settings: P. falciparum luciferase reporter growth; series mostly up to 28.7 µM
Procedure, shortened: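 Cell-based qHTS: luciferase-tagged P. falciparum in erythrocytes (2% hematocrit, 0.05% parasitemia final) incubated with compounds for 96 hours, 37 C, 5% CO2; luciferase detection reagent then added and luminescence measured.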
% is set by controls: 0 for no effect and ±100 for the full control effect; potency is the fitted concentration of half-maximal effect.

Row | SMILES | Potency | activity change, negative = inhibition
1 | COc1cc(Cl)cc(C2NC(=S)NC(c3ccccc3)=C2C(C)=O)c1OCC(=O)O (stereo not drawn) | inconclusive: 13.1 µM [inhibitor, partial curve, poor fit] | 
2 | Cn1nnnc1Sc1ncnc2scc(-c3ccc(F)cc3)c12 | inconclusive: 10.4 µM [inhibitor, partial curve, poor fit] | 
3 | O=C(CSC1=NC2(CCCCC2)N=C1c1ccccc1)Nc1ccc2c(c1)OCCO2 | inconclusive: 18.5 µM [inhibitor, single point] | 
4 | CSc1ccccc1C(=O)NCCSC(C)(C)C | inactive | 
5 | CCOC(=O)CN1CC23C=CC(O2)C(C(=O)Nc2ccc(C(C)=O)cc2)C3C1=O (stereo not drawn) | active: 11.7 µM | 
6 | Cc1cc2cc(CN(Cc3nnnn3C3CCCCC3)CC3CCCO3)c(=O)[nH]c2cc1C (stereo not drawn) | inactive | 
7 | O=C(Oc1ccc(OC(=O)N2CCCCC2)cc1)N1CCCCC1 | inconclusive: 11.7 µM [inhibitor, single point] | 
8 | CC(=O)N1CCC(C(=O)Nc2ccc(S(=O)(=O)N3CCCCC3)cc2)CC1 | inactive | 
9 | O=C(c1ccco1)N1CCN(C(=O)c2ccc(-c3ccc(Cl)cc3)o2)CC1 | inconclusive: 18.5 µM [inhibitor, single point] | 
10 | O=C(NCC1CCCO1)c1ccc(N2CCCCC2)c([N+](=O)[O-])c1 (stereo not drawn) | inconclusive: 10.4 µM [inhibitor, partial curve] | 
11 | Nc1nc(-c2ccccc2)c(N=Nc2cccc3ccccc23)s1 | inconclusive: 18.5 µM [inhibitor, single point] | 
12 | Nc1ccc(C(=O)N2CCN(S(=O)(=O)c3ccc4c(c3)OCCCO4)CC2)cc1[N+](=O)[O-] | inconclusive: 18.5 µM [inhibitor, single point] | 
13 | O=C(O)/C=C/c1ccc([N+](=O)[O-])o1 | inconclusive: 11.7 µM [inhibitor, partial curve, poor fit] | 
14 | CCOc1ncccc1C(=O)OCC(=O)c1cc(OC)ccc1OC | inactive | 
15 | O=c1c2ccccc2nc(COc2ccccc2)n1/N=C/c1ccc(O)c(O)c1 | inconclusive: 9.28 µM [inhibitor, single point] | 
16 | O=C(COC(=O)c1ccco1)c1ccc(S(=O)(=O)N2CCCCC2)cc1 | inconclusive: 8.28 µM [inhibitor, partial curve, poor fit] | 
17 | O=C(Nc1cccc2ccccc12)NC1CCS(=O)(=O)C1 (stereo not drawn) | inconclusive: 10.4 µM [inhibitor, single point] | 
18 | CCOCCn1c(CN2CCc3ccccc3C2)nc2c1c(=O)n(C)c(=O)n2C | inconclusive: 9.28 µM [inhibitor, partial curve, poor fit] | 
19 | COc1ccc(-c2nc(CS(=O)CC(=O)NCc3ccco3)c(C)o2)cc1 (stereo not drawn) | inconclusive: 18.5 µM [inhibitor, single point] | 
20 | O=C(O)CSCC(=O)N1CCc2c([nH]c3ccccc23)C1C(F)(F)F (stereo not drawn) | inactive | 
21 | Cc1cccc2sc(NNC(=O)c3ccc(S(=O)(=O)N4CC(C)CC(C)C4)cc3)nc12 (stereo not drawn) | active: 2.94 µM | 
22 | Cc1nc(-c2ccc(F)cc2)c(CC(=O)N(C)CC(=O)Nc2ccc(Br)cc2C)s1 | inconclusive: 0.37 µM [inhibitor, full curve] | 
23 | CCOc1ccccc1N1CCN(C(=O)C2CSC3(C)CCC(=O)N23)CC1 (stereo not drawn) | inconclusive: 18.5 µM [inhibitor, single point] | 

Row | SMILES | Potency | activity change, negative = inhibition
24 | Cc1nc(SCc2ccccc2C)n[nH]1 | inactive | 
25 | Cc1cc(C)cc(OCCNC(=O)c2ccc(Br)cc2)c1 | inactive | 
26 | CCCNC(=O)C(Cc1ccccc1)NS(=O)(=O)c1ccc2c(c1)CCC(=O)N2 (stereo not drawn) | inconclusive: 9.28 µM [inhibitor, partial curve, poor fit] | 
27 | NC(=O)c1nsc(C(=O)N(c2cccc(F)c2)C(C(=O)NCc2ccccc2)c2ccc(O)cc2)c1N (stereo not drawn) | inconclusive: 10.4 µM [inhibitor, single point] | 
28 | COc1ccccc1CC(=O)N(Cc1ccccc1)c1ccc(C)cc1 | active: 9.28 µM | 
29 | COc1ccc(CCNC(=O)CN2C(=O)C3(OCCCO3)c3ccccc32)cc1OC | inconclusive: 9.28 µM [inhibitor, single point] | 
30 | CCCCN(C(=O)CSc1nnc(-c2ccco2)o1)c1c(N)n(Cc2ccccc2)c(=O)[nH]c1=O | inconclusive: 20.8 µM [inhibitor, single point] | 
31 | CC(NC(=O)c1cccnc1)C(=O)O (stereo not drawn) |  | inactive: 115% [at 5.75 µM]
32 | Fc1cc(F)cc(NC(=S)NN2CCOCC2)c1 | inconclusive: 0.0029 µM [inhibitor, partial curve, poor fit] | 
33 | CCN(CC)C(=O)CCSc1nnc(-c2ccco2)o1 | inconclusive: 11.7 µM [inhibitor, partial curve, poor fit] | 
34 | Cc1ccc(C)c(OCC(=O)NC(Cc2c[nH]c3ccccc23)C(=O)O)c1 (stereo not drawn) | inactive | 
35 | CCCCS(=O)(=O)c1sc2nc3c(cc2c1N)CCCC3 | inconclusive: 13.1 µM [inhibitor, single point] | 
36 | Cc1cccc(C(=O)OCC(=O)Nc2ccc(F)cc2)c1 | inactive | 
37 | CC(=O)/C(N=Nc1cc(C)ccc1O)=C(\C)O | inconclusive: 1.17 µM [inhibitor, full curve, poor fit] | 
38 | O=C(c1cc(F)c(F)c(F)c1F)N1CCN(Cc2ccc3c(c2)OCO3)CC1 | inconclusive: 18.5 µM [inhibitor, single point] | 
39 | COc1ccc(-c2nc(CSCC(=O)NCc3ccc4c(c3)OCO4)c(C)o2)cc1OC | inconclusive: 18.5 µM [inhibitor, single point] | 
40 | COc1cc(OC)cc(C(=O)NCC(=O)OCC(=O)c2ccc3c(c2)-c2ccccc2C3)c1 | inactive | 
41 | O=C(CCCOc1ccc(Cl)cc1Cl)N/N=C\C1CCCCC1 | inactive | 
42 | CCN(CCC#N)c1ccc(/C=N/Nc2nc(C)cc(=O)[nH]2)c(C)c1 | inconclusive: 10.4 µM [inhibitor, single point] | 
43 | Cc1onc(-c2c(F)cccc2Cl)c1C(=O)Nc1nnc(C2CC2)s1 | inconclusive: 0.0657 µM [inhibitor, full curve, poor fit] | 
44 | CC(=O)Nc1ccc(S(=O)(=O)Oc2ccccc2N2C(=O)C3C4CCC(C4)C3C2=O)cc1 (stereo not drawn) | inactive | 
45 | CCCN(CC(=O)Nc1ccccc1C)C(=O)c1ccc(N2CCCCCC2)c([N+](=O)[O-])c1 | inconclusive: 8.28 µM [inhibitor, partial curve, poor fit] | 
46 | O=C(CNC1CCCCC1)Nc1ccc(Cl)cc1 | inconclusive: 14.7 µM [inhibitor, single point] | 

Row | SMILES | Potency | activity change, negative = inhibition
47 | O=C(CSc1nnc(COc2ccccc2Cl)o1)NC(=O)NC1CCCC1 | active: 11.7 µM | 
48 | COc1ccccc1C(=O)Nc1ccnn1C1CCN(Cc2cnn(C)c2C)CC1 | active: 6.57 µM | 
49 | CC(C)c1nnc(NC(=O)C2CCN(c3nc4ccccc4s3)CC2)s1 | inconclusive: 18.5 µM [inhibitor, single point] | 
50 | CC(=O)c1ccc(-n2nncc2-c2ccc([N+](=O)[O-])cc2)cc1 | inconclusive: 18.5 µM [inhibitor, single point] | 
51 | COC(=O)[C@@H]1C[C@@H]2CC[C@@H](O)C[C@@H]2N1Cc1ccc(Cl)cc1 | inconclusive: 18.5 µM [inhibitor, single point] | 
52 | O=C1CCCCC1Sc1nnc(Cc2cccs2)n1CCc1ccccc1 (stereo not drawn) | inconclusive: 18.5 µM [inhibitor, single point] | 
53 | Cc1ccc(OCC(O)Cn2c(N3CCCCC3)nc3c2c(=O)[nH]c(=O)n3C)cc1C (stereo not drawn) | inactive | 
54 | Nc1c(C(=O)Nc2ccc(Cl)c(C(=O)O)c2)sc2nc3c(cc12)CCCC3 | inactive | 
55 | COc1ccc(NS(=O)(=O)c2cccc(C(=O)N/N=C/c3ccc(O)cc3)c2)cc1 | inactive | 
56 | COC(=O)Nc1ccc(N=C(N)N[N+](=O)[O-])cc1 | inconclusive: 18.5 µM [inhibitor, single point] | 
57 | COc1ccc([N+](=O)[O-])cc1N(CC(O)CN1CCOCC1)S(=O)(=O)c1ccccc1 (stereo not drawn) | inactive | 
58 | COc1ccccc1NC(=O)N1CCCC1C(=O)NC1CCCCC1 (stereo not drawn) | inconclusive: 8.28 µM [inhibitor, partial curve] | 
59 | COCCN(C(=O)Nc1ccccc1OC)c1nc2ccccc2s1 | inactive | 
60 | Cc1ccc(S(=O)(=O)N2CCN(C(=O)CSc3ccc(F)cc3)CC2)cc1 | inconclusive: 6.57 µM [inhibitor, partial curve] | 
61 | Nc1nc(-c2ccc(S(=O)(=O)N3CCCCC3)cc2)cs1 | active: 13.1 µM | 
62 | CC(C)N(C)NC(=S)Nc1ccccc1 | inactive | 
63 | COc1ccc(-c2csc(N3CCN(C(=O)c4ccccc4)CC3)n2)cc1 | inconclusive: 18.5 µM [inhibitor, partial curve, poor fit] | 
64 | CSCCNC(=O)c1ccc2nc(C3CCCCC3)oc2c1 | inconclusive: 18.5 µM [inhibitor, single point] | 
65 | NC(N)=NC(N)=NCCc1ccccc1 | inconclusive: 8.09 µM [inhibitor, partial curve, poor fit] and inconclusive: 757 nM [inhibitor, full curve, poor fit] and inconclusive: 5.22 µM [inhibitor, partial curve, poor fit] | 
66 | CCOC(=O)COc1cc(-n2c(=S)[nH]c3ccccc3c2=O)c(Cl)cc1Cl | inactive | 
67 | Cc1ccc(C(=O)N/C(=C\c2cn(C)c3ccccc23)C(=O)NCCN2CCOCC2)cc1 | inconclusive: 18.5 µM [inhibitor, single point] | 
68 | CCOC(=O)C1CCN(S(=O)(=O)c2ccc(C(C)=O)cc2)CC1 | inconclusive: 0.0586 µM [inhibitor, partial curve, poor fit] | 
